{"source": "paper PMC9396447", "binders": {"B1": {"name": "Mitochondrial protein ISCU2 (endogenous, mouse cortex) (protein, UniProt Q9D7P6 36-168)", "chain": "YHKKVVDHYENPRNVGSLDKTSKNVGTGLVGAPACGDVMKLQIQVDEKGKIVDARFKTFGCGSAIASSSLATEWVKGKTVEEALTIKNTDIAKELCLPPVKLHCSMLAEDAIKAALADYKLKQESKKEEPEKQ"}}, "target": "T1, frataxin (endogenous, mouse cortex / cultured cortical neurons) (mouse (endogenous in mouse cortex)) (UniProt O35943)", "T1 sequence": "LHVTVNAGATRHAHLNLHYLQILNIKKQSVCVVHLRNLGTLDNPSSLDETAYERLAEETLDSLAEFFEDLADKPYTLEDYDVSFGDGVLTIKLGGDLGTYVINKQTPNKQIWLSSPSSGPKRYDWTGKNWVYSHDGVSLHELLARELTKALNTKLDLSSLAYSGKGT", "assay": "co-IP; mouse cortical (brain) homogenates; anti-frataxin antibody (Abcam) overnight at 4°C, protein G beads 2 h at 4°C, four washes with RIPA buffer; blot; control IgG", "note": "These are yes or no findings as the source states them, for the method shown. Binding seen in cells or lysates may run through a third protein. Some entries that bind do so weakly or less than the wild type."}
{"binder": "B1", "values": [{"measurement": "binding", "value": "binds"}]}
